This passage reports IC50 results from PMC8041276 (ACS Chemical Neuroscience, 2021).

For the assay, the system named is HepG2 cells. Description: MTT assay, hepatotoxicity in HepG2 cells. It counts as cell-based. The note with it: Homo sapiens; HepG2, 24 h; printed in Figure 5A; read-out: IC50, cellular viability (MTT). On the procedure:
Human hepatocellular carcinoma cells (HepG2) were cultured using standard procedures (protocol from ATCC). Cells were cultured in Eagle’s minimum essential medium (EMEM) in flasks with an area of 25 cm^2 (Falcon), supplemented with 10% of fetal bovine serum (FBS, Life Technologies) with the addition of 100 IU/mL penicillin (Sigma-Aldrich) and 100 μg/mL streptomycin (Sigma-Aldrich) and incubated at 37 °C in a humidified atmosphere with 5% CO2.
The MTT assay was used to determine the viability of HepG2 cells incubated in the presence of compound 27 and DOX. Cells were seeded at a density of 2 × 10^4 in 96-well plates. […] Following cell exposure to each compound 10 μL of MTT reagent (Sigma-Aldrich) was added to each well. After 4 h of incubation (37 °C, 5% CO2) the culture medium was aspirated and formazan crystals were dissolved in 100 μL of DMSO. Then, optical density (OD) at 570 nm was determined on a plate reader (Spectra Max iD3, Molecular Devices). Each individual experiment was repeated at least three times.
On the technique in general: Tetrazolium assays rely on reduction of a dye to a coloured formazan, in cell work by metabolically active cells.

In the case of `COc1cccc2c1C(=O)c1c(O)c3c(c(O)c1C2=O)C[C@@](O)(C(=O)CO)C[C@@H]3O[C@H]1C[C@H](N)[C@H](O)[C@H](C)O1` [DOX, Doxorubicin, reference compound], the IC50 stood at 750 nM.

Broadly, the IC50 is the concentration needed to halve the response being measured.
